Assay results as given in patent publication US12209086B2, “FGFR3 inhibitor compounds” (ELI LILLY AND COMPANY, priority 2021, dated 2025).
Some entries share one result that the patent states for a list of compounds.

Chains of the proteins cited; added tags and fusions are not shown. Residues count along the entry.
UniProt P22607, 23-806: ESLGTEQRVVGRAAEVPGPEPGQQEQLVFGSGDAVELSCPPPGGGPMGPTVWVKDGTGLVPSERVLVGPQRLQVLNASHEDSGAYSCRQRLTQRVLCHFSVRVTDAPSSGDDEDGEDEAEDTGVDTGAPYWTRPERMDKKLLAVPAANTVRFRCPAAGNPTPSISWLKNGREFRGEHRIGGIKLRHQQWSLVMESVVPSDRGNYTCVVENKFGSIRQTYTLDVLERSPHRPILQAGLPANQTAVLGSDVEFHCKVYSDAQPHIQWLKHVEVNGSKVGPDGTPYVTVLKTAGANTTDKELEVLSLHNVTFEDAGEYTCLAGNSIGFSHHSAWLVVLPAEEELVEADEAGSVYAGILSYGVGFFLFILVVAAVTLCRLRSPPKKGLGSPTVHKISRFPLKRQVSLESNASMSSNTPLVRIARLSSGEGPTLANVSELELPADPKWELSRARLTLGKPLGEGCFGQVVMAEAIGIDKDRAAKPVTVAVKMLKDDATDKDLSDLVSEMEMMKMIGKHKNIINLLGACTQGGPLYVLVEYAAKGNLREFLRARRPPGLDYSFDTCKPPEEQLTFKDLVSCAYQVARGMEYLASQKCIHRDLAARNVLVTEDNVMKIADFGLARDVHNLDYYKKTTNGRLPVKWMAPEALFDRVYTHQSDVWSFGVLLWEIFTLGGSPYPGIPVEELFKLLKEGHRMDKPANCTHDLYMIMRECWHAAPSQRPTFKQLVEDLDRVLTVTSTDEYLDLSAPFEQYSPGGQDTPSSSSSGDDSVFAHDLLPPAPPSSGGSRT

molecular target: T1, FGFR3 protein (Homo sapiens, UniProt P22607); assay: FGFR3 enzyme assay (KinEASE-TK HTRF kinase assay); format: biochemical; conditions: 0.25 nM enzyme, ATP at Km, 15 min pre-incubation on ice, 30 min at 30° C.
T1 construct: purchased Reaction Biology 1068
Procedure: FGFR3 and FGFR1 Enzyme Assay
Enzyme activity was monitored using the KinEASE™-TK Assay Kit (Cisflio, Cat. No. 62TK0PEC) according to the manufacturer's instructions. All assays were performed at the respective KmATP for each kinase in KinEASE™ Kinase Buffer.
Titration of compounds were performed in a half-log manner in 100% dimethyl sulfoxide (DMSO) starting at 1 uM. Prior to the initiation of the reaction by adenosine triphosphate (ATP), FGFR1 protein and compounds were pre-incubated for 15 minutes at room temperature, and FGFR3 protein and compounds were pre-incubated on ice for 15 minutes. Reactions proceeded for 30 min at 30° C. Plates were quenched by the addition of the Anti-TK cryptate antibody/Streptavidin-XL665 mixture.
Ratios were converted to a percent of control (POC) using a ratiometric emission factor. One hundred POC was determined using no test compound, and 0 POC was determined in the presence of 1 uM of an appropriate control inhibitor.

IC50, < 350 nM:
Cc1c(-c2cc(OC(c3ccc(F)cn3)C3(C(F)(F)F)CC3)c3c(C#N)cnn3c2)nnn1C1CCN(C#N)CC1 (single isomer, unassigned) [Example 87, 6-[1-(1-Cyano-4-piperidyl)-5-methyl-triazol-4-yl]-4-[(5-fluoro-2-pyridyl)-[1-(trifluoromethyl)cyclo-propyl]methoxy] pyrazolo[1,5-a] pyridine-3-carbonitrile]
Cc1c(-c2cc(OC(CO)c3ccc(F)cn3)c3c(C#N)cnn3c2)cnn1C1CC2(CCN(C#N)CC2)C1 (single isomer, unassigned) [Example 88, 6-[1-(7-Cyano-7-azaspiro[3.5]nonan-2-yl)-5-methyl-pyrazol-4-yl]-4-[1-(5-fluoro-2-pyridyl)-2-hydroxy-ethoxy]pyrazolo[1,5-a]pyridine-3-carbonitrile]
Cc1cnc(C(C)Oc2cc(-c3nnn(C4CCN(C#N)CC4)c3C)cn3ncc(C#N)c23)s1 (single isomer, unassigned) [Example 89, 6-[1-(1-Cyano-4-piperidyl)-5-methyl-triazol-4-yl]-4-[1-(5-methylthiazol-2-yl)ethoxy]pyrazolo [1,5-a]pyridine-3-carbonitrile]
Cc1c(-c2cc(OC(CO)c3ccc(F)cn3)c3c(C#N)cnn3c2)nnn1C1CCN(C#N)CC1 (single isomer, unassigned) [Example 91, 6-[1-(1-Cyano-4-piperidyl)-5-methyl-triazol-4-yl]-4-[1-(5-fluoro-2-pyridyl)-2-hydroxy-ethoxy]pyrazolo[1,5-a]pyridine-3-carbonitrile]
Cc1c(-c2cc(OC(C)c3cn(C(C)C)nn3)c3c(C#N)cnn3c2)nnn1C1CCN(C#N)CC1 (single isomer, unassigned) [Example 93, 6-[1-(1-Cyano-4-piperidyl)-5-methyl-triazol-4-yl]-4-[1-(1-isopropyltriazol-4-yl)ethoxy]pyrazolo [1,5-a]pyridine-3-carbonitrile]
Cc1c(-c2cc(N[C@H](C)c3ccccn3)c3c(C#N)cnn3c2)cnn1C1CCN(C2CN(C#N)C2(C)C)CC1 (single isomer, unassigned) [Example 94]
Cc1c(-c2cc(OC(CC(F)(F)F)c3ccc(F)cn3)n3c(C#N)cnc3c2)nnn1C1CCN(C#N)CC1 (single isomer, unassigned) [Example 96, 7-[1-(1-Cyano-4-piperidyl)-5-methyl-triazol-4-yl]-5-[3,3,3-trifluoro-1-(5-fluoro-2-pyridyl)propoxy]imidazo [1,2-a]pyridine-3-carbonitrile]
CCn1nncc1C(C)Oc1cc(-c2nnn(C3CCN(C#N)CC3)c2C)cc2ncc(C#N)n12 (single isomer, unassigned) [Example 97, 7-[1-(1-Cyano-4-piperidyl)-5-methyl-triazol-4-yl]-5-[1-(3-ethyltriazol-4-yl)ethoxy]imidazo [1,2-a]pyridine-3-carbonitrile]
Cc1c(-c2cc(OC(CCO)c3ccc(F)cn3)c3c(C#N)cnn3c2)nnn1C1CCN(C#N)CC1 (single isomer, unassigned) [Example 98, 6-[1-(1-Cyano-4-piperidyl)-5-methyl-triazol-4-yl]-4-[1-(5-fluoro-2-pyridyl)-3-hydroxy-propoxy]pyrazolo [1,5-a]pyridine-3-carbonitrile]
Cc1c(-c2cc(OC(C)c3cncc(C(F)(F)F)n3)n3c(C#N)cnc3c2)nnn1C1CCN(C#N)CC1 (single isomer, unassigned) [Example 99, 7-[1-(1-Cyano-4-piperidyl)-5-methyl-triazol-4-yl]-5-[1-[6-(trifluoromethyl)pyrazin-2-yl]ethoxy]imidazo [1,2-a]pyridine-3-carbonitrile]
Cc1c(-c2cc(OC(CO)c3cncc(C(F)(F)F)c3)n3c(C#N)cnc3c2)nnn1C1CCN(C#N)CC1 (single isomer, unassigned) [Example 100, 7-[1-(1-Cyano-4-piperidyl)-5-methyl-triazol-4-yl]-5-[2-hydroxy-1-[5-(trifluoromethyl)-3-pyridyl]ethoxy] imidazo [1,2-a]pyridine-3-carbonitrile]
Cc1c(-c2cc(OC(CO)c3ncc(F)cc3F)n3c(C#N)cnc3c2)nnn1C1CCN(C#N)CC1 (single isomer, unassigned) [Example 101, 7-[1-(1-Cyano-4-piperidyl)-5-methyl-triazol-4-yl]-5-[1-(3,5-difluoro-2-pyridyl)-2-hydroxy-ethoxy]imidazo[1,2-a]pyridine-3-carbonitrile]
Cc1c(-c2cc(OC(CO)c3ccc(F)cn3)n3c(C#N)cnc3c2)nnn1C1CC2(CCN(C#N)CC2)C1 (single isomer, unassigned) [Example 103, 7-[1-(7-Cyano-7-azaspiro[3.5]nonan-2-yl)-5-methyl-triazol-4-yl]-5-[1-(5-fluoro-2-pyridyl)-2-hydroxy-ethoxy]imidazo[1,2-a]pyridine-3-carbonitrile]
Cc1c(-c2cc(OC(CO)c3ccc(F)cn3)n3c(C#N)cnc3c2)cnn1C1CCN(C#N)CC1 (single isomer, unassigned) [Example 105, 7-[1-(1-cyano-4-piperidyl)-5-methyl-pyrazol-4-yl]-5-[1-(5-fluoro-2-pyridyl)-2-hydroxy-ethoxy]imidazo[1,2-a]pyridine-3-carbonitrile]
Cc1c(-c2cc(OC(CO)c3ccc(Cl)cn3)n3c(C#N)cnc3c2)nnn1C1CCN(C#N)CC1 (single isomer, unassigned) [Example 106, 5-[1-(5-Chloro-2-pyridyl)-2-hydroxy-ethoxy]-7-[1-(1-cyano-4-piperidyl)-5-methyl-triazol-4-yl]imidazo[1,2-a]pyridine-3-carbonitrile]
Cc1c(-c2cc(OC(CO)c3cncc(C(F)(F)F)c3)c3c(C#N)cnn3c2)nnn1C1CCN(C#N)CC1 (single isomer, unassigned) [Example 107, 6-[1-(1-Cyano-4-piperidyl)-5-methyl-triazol-4-yl]-4-[2-hydroxy-1-[5-(trifluoromethyl)-3-pyridyl]ethoxy] pyrazolo [1,5-a]pyridine-3-carbonitrile]
Cc1c(-c2cc(OC(CCO)c3ccc(F)cn3)n3c(C#N)cnc3c2)nnn1C1CCN(C#N)CC1 (single isomer, unassigned) [Example 108, 7-[1-(1-Cyano-4-piperidyl)-5-methyl-triazol-4-yl]-5-[1-(5-fluoro-2-pyridyl)-3-hydroxy-propoxy]imidazo[1,2-a]pyridine-3-carbonitrile]
Cc1c(-c2cc(OC(CC(C)C)c3ccccn3)n3c(C#N)cnc3c2)nnn1C1CCN(C#N)CC1 (single isomer, unassigned) [Example 110, 7-[1-(1-Cyano-4-piperidyl)-5-methyl-triazol-4-yl]-5-[3-methyl-1-(2-pyridyl)butoxy] imidazo [1,2-a]pyridine-3-carbonitrile]
Cc1c(-c2cc(OC(CC3CC3)c3ccccn3)n3c(C#N)cnc3c2)nnn1C1CCN(C#N)CC1 (single isomer, unassigned) [Example 111, 7-[1-(1-Cyano-4-piperidyl)-5-methyl-triazol-4-yl]-5-[2-cyclopropyl-1-(2-pyridyl)ethoxy] imidazo [1,2-a]pyridine-3-carbonitrile]
Cc1c(-c2cc(OC3CCOc4cccnc43)n3c(C#N)cnc3c2)nnn1C1CCN(C#N)CC1 (single isomer, unassigned) [Example 113, 7-[1-(1-Cyano-4-piperidyl)-5-methyl-triazol-4-yl]-5-(3,4-dihydro-2H-pyrano[3,2-b]pyridin-4-yloxy)imidazo[1,2-a]pyridine-3-carbonitrile]
Cc1c(-c2cc(OC3c4ncccc4CC3(C)C)n3c(C#N)cnc3c2)nnn1C1CCN(C#N)CC1 (single isomer, unassigned) [Example 114, 7-[1-(1-Cyano-4-piperidyl)-5-methyl-triazol-4-yl]-5-[(6,6-dimethyl-5,7-dihydrocyclopenta[b]pyridin-7-yl)oxy]imidazo[1,2-a]pyridine-3-carbonitrile]
Cc1c(-c2cc(OC(C)c3ncc(F)cc3F)n3c(C#N)cnc3c2)nnn1C1CCN(C#N)CC1 (single isomer, unassigned) [Example 116, 7-[1-(1-Cyano-4-piperidyl)-5-methyl-triazol-4-yl]-5-[1-(3,5-difluoro-2-pyridyl)ethoxy] imidazo [1,2-a]pyridine-3-carbonitrile]
COc1cc(-c2cnn(C3CCN(C#N)CC3(F)F)c2C)cn2ncc(C#N)c12 (single isomer, unassigned) [Example 118, 6-[1-(1-Cyano-3,3-difluoro-4-piperidyl)-5-methyl-pyrazol-4-yl]-4-methoxy-pyrazolo[1,5-a]pyridine-3-carbonitrile]
Cc1c(-c2cc(OC(c3ccccn3)C3(C(F)(F)F)CC3)n3c(C#N)cnc3c2)nnn1C1CCN(C#N)CC1 (single isomer, unassigned) [Example 120, 7-[1-(1-Cyano-4-piperidyl)-5-methyl-triazol-4-yl]-5-[2-pyridyl-[1-(trifluoromethyl)cyclo-propyl]methoxy] imidazo [1,2-a]pyridine-3-carbonitrile]
Cc1ccc(C(C)Oc2cc(-c3nnn(C4CCN(C#N)CC4)c3C)cc3ncc(C#N)n23)nc1 (single isomer, unassigned) [Example 121, 7-[1-(1-Cyano-4-piperidyl)-5-methyl-triazol-4-yl]-5-[1-(5-methyl-2-pyridyl)ethoxy] imidazo [1,2-a]pyridine-3-carbonitrile]
